Assay results published in the supplement of paper PMC6411743.
± gives the standard deviation of the averaged measurements. The entries are a selection whose mix differs from that of the whole data set. Small differences around the control level are noise.

Chains of the proteins cited; added tags and fusions are not shown. Lines headed by an entry give the natural chain unless they say otherwise; changes in a name come on top.
UniProt Q9H270: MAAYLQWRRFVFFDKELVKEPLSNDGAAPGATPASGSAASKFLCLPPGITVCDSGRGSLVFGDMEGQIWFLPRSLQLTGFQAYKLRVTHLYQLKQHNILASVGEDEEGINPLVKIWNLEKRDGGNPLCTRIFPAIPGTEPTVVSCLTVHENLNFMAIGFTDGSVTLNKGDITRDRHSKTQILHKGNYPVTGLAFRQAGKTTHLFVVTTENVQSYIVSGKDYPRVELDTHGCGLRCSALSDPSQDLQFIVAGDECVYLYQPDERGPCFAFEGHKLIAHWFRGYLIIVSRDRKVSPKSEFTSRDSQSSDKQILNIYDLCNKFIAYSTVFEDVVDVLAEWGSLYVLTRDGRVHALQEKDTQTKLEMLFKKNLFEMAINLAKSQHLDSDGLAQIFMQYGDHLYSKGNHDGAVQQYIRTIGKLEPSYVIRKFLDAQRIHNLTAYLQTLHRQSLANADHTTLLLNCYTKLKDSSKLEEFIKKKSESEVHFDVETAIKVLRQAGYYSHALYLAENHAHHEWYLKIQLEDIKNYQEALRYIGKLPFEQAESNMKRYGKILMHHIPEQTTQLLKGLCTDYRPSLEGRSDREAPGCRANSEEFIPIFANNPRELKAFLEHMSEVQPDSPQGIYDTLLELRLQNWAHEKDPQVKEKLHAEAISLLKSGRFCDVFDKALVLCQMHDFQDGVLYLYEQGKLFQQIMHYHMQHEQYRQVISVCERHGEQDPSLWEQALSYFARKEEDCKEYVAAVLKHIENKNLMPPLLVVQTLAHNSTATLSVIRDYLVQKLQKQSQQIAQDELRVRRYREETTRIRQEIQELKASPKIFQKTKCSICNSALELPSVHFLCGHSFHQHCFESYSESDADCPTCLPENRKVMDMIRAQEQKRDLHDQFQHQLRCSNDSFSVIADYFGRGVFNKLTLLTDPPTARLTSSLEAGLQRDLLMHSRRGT
UniProt Q9H6N6: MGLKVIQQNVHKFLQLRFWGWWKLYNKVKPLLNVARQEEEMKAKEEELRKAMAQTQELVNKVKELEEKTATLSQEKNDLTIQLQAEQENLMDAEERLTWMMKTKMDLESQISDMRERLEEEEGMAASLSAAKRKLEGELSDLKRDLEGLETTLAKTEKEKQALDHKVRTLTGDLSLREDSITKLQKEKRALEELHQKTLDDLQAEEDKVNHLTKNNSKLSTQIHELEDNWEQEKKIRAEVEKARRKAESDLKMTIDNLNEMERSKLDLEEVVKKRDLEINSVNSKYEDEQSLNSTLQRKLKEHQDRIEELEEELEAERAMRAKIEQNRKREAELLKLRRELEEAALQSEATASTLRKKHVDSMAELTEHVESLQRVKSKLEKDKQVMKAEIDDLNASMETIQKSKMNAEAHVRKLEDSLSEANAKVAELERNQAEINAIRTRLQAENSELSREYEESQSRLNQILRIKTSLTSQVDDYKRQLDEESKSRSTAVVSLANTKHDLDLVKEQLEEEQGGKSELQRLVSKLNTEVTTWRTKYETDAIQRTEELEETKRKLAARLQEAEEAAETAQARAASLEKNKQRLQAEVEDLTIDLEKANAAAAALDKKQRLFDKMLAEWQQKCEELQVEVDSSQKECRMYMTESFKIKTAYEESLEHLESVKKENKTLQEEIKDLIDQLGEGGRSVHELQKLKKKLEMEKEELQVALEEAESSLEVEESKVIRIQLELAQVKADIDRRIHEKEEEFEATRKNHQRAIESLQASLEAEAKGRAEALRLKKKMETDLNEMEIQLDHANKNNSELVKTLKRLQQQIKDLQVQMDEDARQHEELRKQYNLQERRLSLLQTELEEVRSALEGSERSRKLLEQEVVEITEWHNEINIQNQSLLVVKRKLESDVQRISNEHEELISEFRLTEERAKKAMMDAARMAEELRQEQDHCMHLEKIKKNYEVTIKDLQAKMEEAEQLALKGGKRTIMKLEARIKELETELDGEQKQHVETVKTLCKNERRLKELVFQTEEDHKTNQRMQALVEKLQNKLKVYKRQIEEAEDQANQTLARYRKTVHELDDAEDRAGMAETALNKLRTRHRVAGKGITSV
UniProt Q9H223: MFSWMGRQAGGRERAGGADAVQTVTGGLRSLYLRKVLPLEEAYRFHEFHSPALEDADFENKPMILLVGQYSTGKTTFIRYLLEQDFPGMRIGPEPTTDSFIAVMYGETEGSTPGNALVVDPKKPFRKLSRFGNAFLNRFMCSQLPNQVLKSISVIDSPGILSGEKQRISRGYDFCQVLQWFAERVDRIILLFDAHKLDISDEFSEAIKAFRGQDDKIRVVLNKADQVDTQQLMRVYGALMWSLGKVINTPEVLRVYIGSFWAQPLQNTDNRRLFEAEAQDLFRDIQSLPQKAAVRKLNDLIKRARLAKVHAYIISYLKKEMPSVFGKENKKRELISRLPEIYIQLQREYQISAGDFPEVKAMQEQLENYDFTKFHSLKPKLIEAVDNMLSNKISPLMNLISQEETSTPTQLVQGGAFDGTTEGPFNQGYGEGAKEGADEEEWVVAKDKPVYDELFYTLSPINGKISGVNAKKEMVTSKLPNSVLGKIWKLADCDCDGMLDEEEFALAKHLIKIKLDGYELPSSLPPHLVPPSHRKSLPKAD
UniProt Q9H8G2: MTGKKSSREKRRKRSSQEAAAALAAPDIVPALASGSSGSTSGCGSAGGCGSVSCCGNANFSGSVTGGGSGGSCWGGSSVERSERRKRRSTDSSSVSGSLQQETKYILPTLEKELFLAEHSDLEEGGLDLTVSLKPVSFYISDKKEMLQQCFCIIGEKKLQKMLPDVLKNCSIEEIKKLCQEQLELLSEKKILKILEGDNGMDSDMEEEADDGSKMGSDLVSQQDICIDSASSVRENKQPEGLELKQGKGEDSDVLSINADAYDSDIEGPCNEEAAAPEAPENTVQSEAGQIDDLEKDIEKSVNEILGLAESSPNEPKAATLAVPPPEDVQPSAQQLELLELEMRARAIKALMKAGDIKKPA
UniProt Q9H8H0: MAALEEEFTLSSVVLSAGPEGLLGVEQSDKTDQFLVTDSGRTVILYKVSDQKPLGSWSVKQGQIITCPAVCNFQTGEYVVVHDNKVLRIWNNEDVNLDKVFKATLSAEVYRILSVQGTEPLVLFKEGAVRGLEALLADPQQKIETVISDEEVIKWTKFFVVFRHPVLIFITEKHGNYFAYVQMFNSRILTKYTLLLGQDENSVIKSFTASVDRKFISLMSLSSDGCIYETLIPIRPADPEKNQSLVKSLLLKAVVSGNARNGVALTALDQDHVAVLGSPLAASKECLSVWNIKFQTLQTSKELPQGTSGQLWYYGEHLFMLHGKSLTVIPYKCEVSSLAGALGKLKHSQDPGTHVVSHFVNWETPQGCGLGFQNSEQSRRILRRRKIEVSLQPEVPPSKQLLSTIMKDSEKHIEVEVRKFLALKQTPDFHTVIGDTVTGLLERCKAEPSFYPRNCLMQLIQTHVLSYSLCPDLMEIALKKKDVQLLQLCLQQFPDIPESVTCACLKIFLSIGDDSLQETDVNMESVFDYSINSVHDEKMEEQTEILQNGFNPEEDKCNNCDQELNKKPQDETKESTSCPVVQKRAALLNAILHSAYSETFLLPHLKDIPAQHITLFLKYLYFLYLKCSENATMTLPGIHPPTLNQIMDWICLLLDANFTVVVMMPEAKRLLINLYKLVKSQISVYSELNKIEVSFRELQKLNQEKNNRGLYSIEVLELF
UniProt Q9H6F5: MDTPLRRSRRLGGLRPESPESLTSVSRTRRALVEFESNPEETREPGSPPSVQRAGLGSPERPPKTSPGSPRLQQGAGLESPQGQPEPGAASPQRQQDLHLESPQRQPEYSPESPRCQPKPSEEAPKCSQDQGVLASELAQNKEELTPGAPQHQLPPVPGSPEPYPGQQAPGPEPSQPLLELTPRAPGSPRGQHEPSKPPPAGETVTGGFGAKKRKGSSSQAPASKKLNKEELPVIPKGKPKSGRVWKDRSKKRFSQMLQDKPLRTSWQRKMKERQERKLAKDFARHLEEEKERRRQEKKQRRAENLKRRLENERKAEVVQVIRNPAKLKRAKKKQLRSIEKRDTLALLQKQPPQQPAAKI
UniProt Q9C0E8: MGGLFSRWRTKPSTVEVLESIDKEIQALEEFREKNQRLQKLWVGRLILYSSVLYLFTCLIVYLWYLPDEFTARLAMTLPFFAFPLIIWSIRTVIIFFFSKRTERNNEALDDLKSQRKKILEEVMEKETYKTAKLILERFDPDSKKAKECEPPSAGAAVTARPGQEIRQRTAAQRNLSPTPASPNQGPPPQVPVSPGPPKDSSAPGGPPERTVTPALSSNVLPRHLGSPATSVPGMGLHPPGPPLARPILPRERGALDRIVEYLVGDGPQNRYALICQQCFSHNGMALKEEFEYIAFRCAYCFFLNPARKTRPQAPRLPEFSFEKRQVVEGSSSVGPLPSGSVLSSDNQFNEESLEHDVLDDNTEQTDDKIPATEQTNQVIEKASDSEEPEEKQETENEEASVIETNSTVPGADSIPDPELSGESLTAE
UniProt Q9C0B0: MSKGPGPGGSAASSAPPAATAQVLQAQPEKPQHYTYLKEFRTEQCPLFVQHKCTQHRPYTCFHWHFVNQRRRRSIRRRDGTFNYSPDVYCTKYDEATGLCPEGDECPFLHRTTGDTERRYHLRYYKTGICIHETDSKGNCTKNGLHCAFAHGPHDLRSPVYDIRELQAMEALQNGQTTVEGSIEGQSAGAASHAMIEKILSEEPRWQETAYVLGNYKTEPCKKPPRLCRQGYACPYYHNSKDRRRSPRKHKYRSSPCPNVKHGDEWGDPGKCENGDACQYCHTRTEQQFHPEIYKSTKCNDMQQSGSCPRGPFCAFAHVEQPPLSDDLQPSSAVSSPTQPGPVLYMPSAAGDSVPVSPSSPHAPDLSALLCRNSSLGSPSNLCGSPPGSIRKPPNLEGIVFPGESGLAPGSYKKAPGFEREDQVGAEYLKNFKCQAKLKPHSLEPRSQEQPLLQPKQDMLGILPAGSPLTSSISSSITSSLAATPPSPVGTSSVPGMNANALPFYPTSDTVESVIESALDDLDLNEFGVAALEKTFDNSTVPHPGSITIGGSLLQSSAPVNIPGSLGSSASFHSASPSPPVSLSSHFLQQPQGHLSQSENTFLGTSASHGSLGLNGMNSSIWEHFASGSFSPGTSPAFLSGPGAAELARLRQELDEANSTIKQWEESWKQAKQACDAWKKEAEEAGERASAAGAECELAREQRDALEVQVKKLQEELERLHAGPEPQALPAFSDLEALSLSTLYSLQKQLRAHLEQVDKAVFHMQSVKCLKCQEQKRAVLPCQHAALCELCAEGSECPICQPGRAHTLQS
UniProt Q9H089: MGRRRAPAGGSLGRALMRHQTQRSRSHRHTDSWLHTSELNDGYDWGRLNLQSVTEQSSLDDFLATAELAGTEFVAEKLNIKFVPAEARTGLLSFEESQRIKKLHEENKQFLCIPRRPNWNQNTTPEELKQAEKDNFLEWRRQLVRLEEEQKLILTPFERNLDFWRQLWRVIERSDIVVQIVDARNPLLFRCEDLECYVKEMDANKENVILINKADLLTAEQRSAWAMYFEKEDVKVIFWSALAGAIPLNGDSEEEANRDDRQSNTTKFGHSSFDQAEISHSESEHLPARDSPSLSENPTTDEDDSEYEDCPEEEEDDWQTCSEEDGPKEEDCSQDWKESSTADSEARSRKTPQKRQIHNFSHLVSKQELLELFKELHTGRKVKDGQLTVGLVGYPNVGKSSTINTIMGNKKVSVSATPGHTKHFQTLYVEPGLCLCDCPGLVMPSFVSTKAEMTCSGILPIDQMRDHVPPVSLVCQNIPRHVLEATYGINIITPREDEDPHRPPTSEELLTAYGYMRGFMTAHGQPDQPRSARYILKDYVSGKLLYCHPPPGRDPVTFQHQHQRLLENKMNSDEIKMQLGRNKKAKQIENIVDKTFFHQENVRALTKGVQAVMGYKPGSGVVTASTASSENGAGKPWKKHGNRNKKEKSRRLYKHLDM
UniProt Q9HDC5: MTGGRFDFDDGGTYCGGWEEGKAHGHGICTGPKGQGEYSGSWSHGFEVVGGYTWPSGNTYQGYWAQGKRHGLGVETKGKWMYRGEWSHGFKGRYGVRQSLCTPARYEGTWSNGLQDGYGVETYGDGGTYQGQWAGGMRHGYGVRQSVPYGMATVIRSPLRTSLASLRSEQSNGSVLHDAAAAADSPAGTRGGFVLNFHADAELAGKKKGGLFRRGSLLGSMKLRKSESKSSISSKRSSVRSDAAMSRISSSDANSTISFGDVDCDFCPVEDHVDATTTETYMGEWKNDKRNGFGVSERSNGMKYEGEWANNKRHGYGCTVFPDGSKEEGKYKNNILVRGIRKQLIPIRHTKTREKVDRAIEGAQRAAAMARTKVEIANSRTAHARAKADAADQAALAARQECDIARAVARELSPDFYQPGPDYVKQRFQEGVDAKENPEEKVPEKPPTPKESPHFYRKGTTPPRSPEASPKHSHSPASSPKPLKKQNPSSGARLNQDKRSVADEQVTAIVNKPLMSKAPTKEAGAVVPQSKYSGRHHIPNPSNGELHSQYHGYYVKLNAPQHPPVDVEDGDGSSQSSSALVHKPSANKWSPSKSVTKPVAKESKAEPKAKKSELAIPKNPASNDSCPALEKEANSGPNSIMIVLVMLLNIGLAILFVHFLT

Compound: Nc1ncnc2c1ncn2[C@@H]1O[C@H](COP(=O)(O)OP(=O)(O)OP(=O)(O)O)[C@@H](O)[C@H]1O [adenosine triphosphate]
Experiment: NP40-soluble protein abundance relative to vehicle (solubility fold change) (ratio); higher = more soluble protein in presence of ATP
Procedure, shortened: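 Crude Jurkat lysate, prepared by Dounce homogenisation, was exposed to eight concentrations from 0.1 to 10 mM for 10 min at room temperature and then 3 min at 37 °C. Solubilisation used 0.8% NP40 with benzonase for 60 min at 4 °C, followed by ultracentrifugation and TMT labelling of the supernatant for LC-MS/MS. After vsn normalisation of intensities, each value is the fold change against the detergent-processed vehicle within each replicate, across three independent experiments.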

Row | Target | NP40-soluble protein abundance (concentration: 0.1mM) | NP40-soluble protein abundance (concentration: 0.5mM)
1 | UniProt Q9H270 and related entries | 1.05 ± 0.066 | 1.03 ± 0.046
2 | UniProt Q9H6R6 and related entries | 0.939 ± 0.086 | 1.01 ± 0.12
3 | MYH16 (UniProt Q9H6N6) | 0.967 ± 0.015 | 0.987 ± 0.036
4 | UniProt Q9H008 and related entries | 0.984 ± 0.047 | 0.983 ± 0.02
5 | UniProt Q9H7F0 and related entries | 0.988 ± 0.092 | 1.04 ± 0.053
6 | UniProt Q9H1K0 | 0.906 ± 0.065 | 0.92 ± 0.064
7 | UniProt Q9H6Q4 | 1.03 ± 0.071 | 0.963 ± 0.029
8 | EHD4 (UniProt Q9H223) | 1.04 ± 0.052 | 1.03 ± 0.042
9 | ACBD3 (UniProt Q9H3P7) | 1.05 ± 0.077 | 1.05 ± 0.071
10 | UniProt Q9H8G2 | 0.978 ± 0.043 | 1 ± 0.076
11 | POFUT1 (UniProt Q9H488) | 1.02 ± 0.04 | 0.984 ± 0.012
12 | NOL11 (UniProt Q9H8H0) | 1.03 ± 0.052 | 1.12 ± 0.077
13 | CCDC86 (UniProt Q9H6F5) | 0.945 ± 0.042 | 1.04 ± 0.071
14 | UniProt Q9H773 | 0.783 ± 0.12 | 0.658 ± 0.087
15 | GGNBP2 (UniProt Q9H3C7) | 1.07 ± 0.14 | 1.07 ± 0.12
16 | UniProt Q9HD33 and related entries | 0.87 ± 0.14 | 0.916 ± 0.18
17 | UniProt Q9GZT8 and related entries | 1 ± 0.044 | 1.01 ± 0.033
18 | PRKRIP1 (UniProt Q9H875) | 0.888 ± 0.055 | 0.944 ± 0.066
19 | TSPYL1 (UniProt Q9H0U9) | 0.951 ± 0.014 | 0.99 ± 0.04
20 | L2HGDH (UniProt Q9H9P8) | 1.02 ± 0.034 | 1.1 ± 0.049
21 | REEP4 (UniProt Q9H6H4) | 1.02 ± 0.061 | 0.996 ± 0.068

Row | Target | NP40-soluble protein abundance (concentration: 0.1mM) | NP40-soluble protein abundance (concentration: 0.5mM)
22 | UniProt Q9H7P9 and related entries | 0.981 ± 0.046 | 0.976 ± 0.1
23 | SDF2L1 (UniProt Q9HCN8) | 0.987 ± 0.029 | 0.961 ± 0.047
24 | CHMP4B (UniProt Q9H444) | 0.998 ± 0.11 | 1.02 ± 0.17
25 | UniProt Q9C0E8 and related entries | 0.957 ± 0.022 | 0.973 ± 0.025
26 | UniProt Q9H4X1 and related entries | 0.903 ± 0.13 | 0.935 ± 0.083
27 | CCDC134 (UniProt Q9H6E4) | 0.968 ± 0.061 | 0.956 ± 0.1
28 | PREB (UniProt Q9HCU5) | 1.02 ± 0.077 | 1.03 ± 0.051
29 | UniProt Q9GZN8 and related entries | 1.12 ± 0.11 | 1.06 ± 0.049
30 | PTGES2 (UniProt Q9H7Z7) | 0.965 ± 0.031 | 0.959 ± 0.013
31 | UniProt Q9H7E2-3 | 0.996 ± 0.059 | 0.985 ± 0.034
32 | MIS12 (UniProt Q9H081) | 0.902 ± 0.17 | 0.894 ± 0.2
33 | UniProt Q9H1E5 | 0.94 ± 0.07 | 0.935 ± 0.095
34 | UniProt Q9H8K7 | 1.04 ± 0.033 | 1.08 ± 0.15
35 | UniProt Q9H1P3 and related entries | 1.01 ± 0.067 | 1.01 ± 0.041
36 | SCAF1 (UniProt Q9H7N4) | 1.05 ± 0.031 | 1.256 ± 0.012
37 | GOLPH3L (UniProt Q9H4A5) | 0.99 ± 0.042 | 0.998 ± 0.015
38 | UNK (UniProt Q9C0B0) | 1.02 ± 0.025 | 1.05 ± 0.053
39 | LSG1 (UniProt Q9H089) | 1.06 ± 0.016 | 1.06 ± 0.046
40 | WDR12 (UniProt Q9GZL7) | 1.03 ± 0.071 | 1.03 ± 0.065
41 | FTO (UniProt Q9C0B1) | 1.05 ± 0.076 | 1.05 ± 0.07
42 | SEPSECS (UniProt Q9HD40) | 0.9982 ± 0.0052 | 0.999 ± 0.061

Row | Target | NP40-soluble protein abundance (concentration: 0.1mM) | NP40-soluble protein abundance (concentration: 0.5mM)
43 | UniProt Q9NP72 and related entries | 1.06 ± 0.055 | 1.03 ± 0.051
44 | ZWILCH (UniProt Q9H900) | 1.05 ± 0.087 | 1.08 ± 0.06
45 | UNC93B1 (UniProt Q9H1C4) | 1.28 ± 0.15 | 1.04 ± 0.14
46 | UniProt Q9GZU8 | 0.938 ± 0.044 | 0.917 ± 0.028
47 | UniProt Q9H7D7-2 | 1 ± 0.042 | 1.01 ± 0.11
48 | SPC25 (UniProt Q9HBM1) | 1.002 ± 0.0014 | 0.952 ± 0.06
49 | JPH1 (UniProt Q9HDC5) | 1.01 ± 0.018 | 1.16 ± 0.12
50 | UniProt Q9H2H8 and related entries | 1.02 ± 0.047 | 1.05 ± 0.089
51 | UniProt Q9GZM8 and related entries | 0.899 ± 0.25 | 0.795 ± 0.27
52 | BOLA2 (UniProt Q9H3K6) | 0.901 ± 0.053 | 0.888 ± 0.086
53 | NMRAL1 (UniProt Q9HBL8) | 1.01 ± 0.052 | 1.01 ± 0.032
54 | UniProt Q9H0X9 and related entries | 0.979 ± 0.082 | 0.969 ± 0.041
55 | ZHX3 (UniProt Q9H4I2) | 1.03 ± 0.049 | 0.989 ± 0.03
56 | XAB2 (UniProt Q9HCS7) | 1.11 ± 0.089 | 1.03 ± 0.019
57 | UniProt Q9H0F7 and related entries | 1.16 ± 0.13 | 1.05 ± 0.047
58 | CPVL (UniProt Q9H3G5) | 1.01 ± 0.042 | 0.9904 ± 0.0056
59 | TOLLIP (UniProt Q9H0E2) | 1.01 ± 0.025 | 0.981 ± 0.021
60 | UniProt Q9H074 and related entries | 0.919 ± 0.059 | 0.907 ± 0.067
61 | UniProt Q9H1I8 and related entries | 1.02 ± 0.26 | 0.953 ± 0.21
62 | UniProt Q9GZR1 and related entries | 0.908 ± 0.036 | 0.916 ± 0.14

Shown with each value named: entries from further up.
BOLA2 (UniProt Q9H3K6)
  NP40-soluble protein abundance (concentration: 0.1mM): 0.901 ± 0.053; NP40-soluble protein abundance (concentration: 0.5mM): 0.888 ± 0.086
NMRAL1 (UniProt Q9HBL8)
  NP40-soluble protein abundance (concentration: 0.1mM): 1.01 ± 0.052; NP40-soluble protein abundance (concentration: 0.5mM): 1.01 ± 0.032
